{"sequences": {"note": "Protein sequences, listed by entry. Tags and fused reporters are not part of them. Lines headed by an entry give the natural chain unless they say otherwise; changes in a name come on top.", "UniProt Q5RL51": "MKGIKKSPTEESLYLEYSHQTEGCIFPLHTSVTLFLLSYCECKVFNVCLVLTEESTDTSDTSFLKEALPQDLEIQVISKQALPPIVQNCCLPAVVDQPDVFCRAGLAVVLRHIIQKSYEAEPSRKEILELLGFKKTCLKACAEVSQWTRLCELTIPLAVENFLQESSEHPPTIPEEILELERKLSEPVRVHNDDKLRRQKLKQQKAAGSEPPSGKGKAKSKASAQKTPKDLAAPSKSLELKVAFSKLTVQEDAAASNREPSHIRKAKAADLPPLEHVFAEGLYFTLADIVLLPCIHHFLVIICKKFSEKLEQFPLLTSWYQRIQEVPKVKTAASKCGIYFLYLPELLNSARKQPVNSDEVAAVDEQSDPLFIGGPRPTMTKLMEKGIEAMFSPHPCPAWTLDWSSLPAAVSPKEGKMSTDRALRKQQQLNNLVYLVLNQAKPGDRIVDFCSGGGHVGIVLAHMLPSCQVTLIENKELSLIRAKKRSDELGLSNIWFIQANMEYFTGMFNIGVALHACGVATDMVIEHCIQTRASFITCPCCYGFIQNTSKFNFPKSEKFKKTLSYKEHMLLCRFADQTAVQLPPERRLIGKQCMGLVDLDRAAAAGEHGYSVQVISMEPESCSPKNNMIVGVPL", "UniProt Q60695": "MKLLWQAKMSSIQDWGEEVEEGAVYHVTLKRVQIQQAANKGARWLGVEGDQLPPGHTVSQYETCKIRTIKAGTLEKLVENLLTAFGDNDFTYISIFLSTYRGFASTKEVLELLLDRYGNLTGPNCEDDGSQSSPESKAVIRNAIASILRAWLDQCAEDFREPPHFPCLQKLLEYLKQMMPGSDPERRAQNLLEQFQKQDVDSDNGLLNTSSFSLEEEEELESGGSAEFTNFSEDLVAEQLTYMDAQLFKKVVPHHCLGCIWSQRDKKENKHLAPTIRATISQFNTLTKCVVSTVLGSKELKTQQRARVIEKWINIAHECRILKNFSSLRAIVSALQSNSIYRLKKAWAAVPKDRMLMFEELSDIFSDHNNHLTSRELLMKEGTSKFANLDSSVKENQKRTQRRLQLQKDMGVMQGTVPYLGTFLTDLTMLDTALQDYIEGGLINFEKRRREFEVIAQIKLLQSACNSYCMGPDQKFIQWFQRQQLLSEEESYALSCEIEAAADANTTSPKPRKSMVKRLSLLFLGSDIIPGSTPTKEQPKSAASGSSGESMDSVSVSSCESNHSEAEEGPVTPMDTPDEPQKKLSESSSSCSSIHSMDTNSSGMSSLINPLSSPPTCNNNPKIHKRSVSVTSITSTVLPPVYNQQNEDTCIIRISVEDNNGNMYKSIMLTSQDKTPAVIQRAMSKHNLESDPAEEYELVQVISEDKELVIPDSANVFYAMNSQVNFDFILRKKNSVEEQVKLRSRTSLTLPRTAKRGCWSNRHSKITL", "UniProt Q61247": "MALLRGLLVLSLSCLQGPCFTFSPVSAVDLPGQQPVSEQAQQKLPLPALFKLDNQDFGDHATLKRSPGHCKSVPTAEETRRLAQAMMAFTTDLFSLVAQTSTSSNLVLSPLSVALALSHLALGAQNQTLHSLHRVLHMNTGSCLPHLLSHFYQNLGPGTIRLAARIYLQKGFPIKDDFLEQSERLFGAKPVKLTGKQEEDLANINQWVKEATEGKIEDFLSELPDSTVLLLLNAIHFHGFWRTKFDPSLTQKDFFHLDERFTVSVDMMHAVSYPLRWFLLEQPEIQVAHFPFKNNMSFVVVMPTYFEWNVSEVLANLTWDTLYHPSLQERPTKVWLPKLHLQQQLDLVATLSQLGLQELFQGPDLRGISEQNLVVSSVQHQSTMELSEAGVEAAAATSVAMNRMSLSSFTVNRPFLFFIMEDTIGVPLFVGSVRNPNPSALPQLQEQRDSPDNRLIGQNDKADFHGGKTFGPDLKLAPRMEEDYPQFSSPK", "UniProt Q5SS80": "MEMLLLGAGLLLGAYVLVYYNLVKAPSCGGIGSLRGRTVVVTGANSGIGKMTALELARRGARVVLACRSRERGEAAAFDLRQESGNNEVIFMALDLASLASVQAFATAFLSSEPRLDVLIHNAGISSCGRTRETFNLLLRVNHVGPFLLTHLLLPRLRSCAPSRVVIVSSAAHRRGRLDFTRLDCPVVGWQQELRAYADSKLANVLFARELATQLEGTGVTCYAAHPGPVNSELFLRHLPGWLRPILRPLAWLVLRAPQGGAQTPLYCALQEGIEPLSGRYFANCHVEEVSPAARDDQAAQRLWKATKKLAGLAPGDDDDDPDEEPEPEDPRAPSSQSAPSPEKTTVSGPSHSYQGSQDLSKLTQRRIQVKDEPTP"}, "source": "the supplement of paper PMC12819154", "about": "“High-throughput peptide-centric local stability assay extends protein–ligand identification to membrane proteins, tissues and bacteria” (Nature Structural & Molecular Biology, 2025)", "note": "Some of the results follow. Small differences around the control level are noise.", "data": [{"compound": "CN[C@@H]1C[C@H]2O[C@@](C)([C@@H]1OC)n1c3ccccc3c3c4c(c5c6ccccc6n2c5c31)C(=O)NC4 [staurosporine]", "experiment": "log2 fold change of tryptic peptide abundance, ligand vs vehicle (limited proteolysis) (log2 ratio); higher = more trypsin-susceptible (destabilized)", "conditions": "ligand concentration: 20 uM; sample: mouse liver crude lysate; replicate design: treated separately", "values": [{"target": "UniProt Q5RL51 (peptide sequence: EILELLGFKK, peptide start residue: 126)", "log2 fold change": 0.291}, {"target": "UniProt Q60695 (peptide sequence: CVVSTVLGSK, peptide start residue: 289)", "log2 fold change": 0.194}, {"target": "UniProt Q61247 (peptide sequence: LIGQNDKADFHGGK, peptide start residue: 455)", "log2 fold change": -0.126}, {"target": "UniProt Q5SS80 (peptide sequence: GRLDFTR, peptide start residue: 176)", "log2 fold change": 0.536}]}]}
